Article PMC10880893, “Structures of the holoenzyme TglHI required for 3-thiaglutamate biosynthesis” (Structure (London, England : 1993), 2023)
These are yes or no findings as the source states them, for the method shown. In cells and extracts the contact can be indirect. A result given as binding can be weak or reduced; the word gives no strength.

Amino acid sequences for entries named in this document (tags omitted). A change or cut given only in a name is not applied to a line headed by its entry.
UniProt A0A8T8BZN3: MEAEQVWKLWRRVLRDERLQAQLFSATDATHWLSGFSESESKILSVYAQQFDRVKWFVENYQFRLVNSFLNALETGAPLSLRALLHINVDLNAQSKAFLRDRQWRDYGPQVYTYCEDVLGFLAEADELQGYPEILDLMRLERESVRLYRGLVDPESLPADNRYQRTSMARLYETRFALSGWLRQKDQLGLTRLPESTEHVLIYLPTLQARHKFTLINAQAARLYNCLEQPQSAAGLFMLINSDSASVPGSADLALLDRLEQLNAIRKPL

Biological target: TglH (Pseudomonas syringae pv. maculicola ES4326)
Test: crystal structure; co-expressed, co-purified TglHI without iron (apoTglHI), with two (TglHI-2Fe) and three Fe ions (TglHI-3Fe); sitting-drop vapor diffusion at 16 °C; 0.2 M potassium sodium tartrate tetrahydrate, 20% w/v PEG 3350; both purified

binding: binds
Substance: TglI (from UniProt A0A8T8BZN3)
